According to PubChem BioAssay AID1487 (National Center for Advancing Translational Sciences (NCATS), 2009):
This is one part of the list. Shown are side measurements of this screen, not its main read-out; they come without a call. Compounds called inactive in the main read-out are mostly missing here. The note in brackets gives the kind of curve behind each potency; many fits are weak.

Experiment: qHTS Assay for Modulators of Lamin A Splicing
Conditions: HeLa LMNA splicing GFP/RFP minigene ratio, 48 h
How it was run: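 Read-out is the ratio of GFP to DsRed2 object intensity, acquired by 488 nm laser-scanning cytometry on HeLa lamin A-EGFP minigene reporter cells. Compound incubation 48 hrs at 37 °C in Opti-MEM with 2% FBS; DMSO 0.5% final.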

[1] = measured here: GFP splicing reporter channel
[2] = measured here: RFP viability control channel

Question: Which AC50 [1] does the source give for `Cc1n[nH]c(C)c1S(=O)(=O)N1CCCC(C(=O)N2CCc3ccccc32)C1` (centres undefined) here?
Answer: 20 µM [rising, single point]

Question: What does the source list for `COC(=O)CNc1nc(-c2ccccc2F)nc2ccccc12`?
Answer: AC50 [1]: 25.1 µM [falling, single point]; AC50 [2]: 35.5 µM [falling, single point]

Question: Which AC50 [1] does the source give for `CCn1c(SCC(=O)Nc2ccc3c(c2)oc2ccccc23)nnc1-c1ccc(N)cc1` here?
Answer: 14.1 µM [rising, single point]

Question: And the AC50 [2]?
Answer: 10 µM [rising, partial curve]

Question: Which results are given for `Cc1ccc(CSCC(=O)N2CCN(c3ccc(F)cc3)CC2)cc1`?
Answer: AC50 [1]: 35.5 µM [rising, single point]; AC50 [2]: 35.5 µM [rising, single point]

Question: For `O=S(=O)(/N=C(/Nc1ccccn1)c1ccc(Cl)cc1)c1ccc(Cl)cc1`, which AC50 [2] is on record?
Answer: 35.5 µM [rising, single point]

Question: What does the source list for `CC(=O)Oc1c(S(=O)(=O)c2ccc(C)cc2)c(C)nn1C(C)(C)C`?
Answer: AC50 [1]: 5.01 µM [falling, partial curve, poor fit]; AC50 [2]: 22.4 µM [falling, partial curve]

Question: Which AC50 [2] does the source give for `Nc1c(C(=O)Nc2ccccc2)sc2nc3c(c(-c4ccco4)c12)CCC3` here?
Answer: 4.47 µM [rising, full curve, poor fit]

Question: For `C=CCNC(C(=O)Nc1cccc(OC)c1)c1ccccc1` (centres undefined), which AC50 [1] is on record?
Answer: 10 µM [falling, partial curve]

Question: With `Cc1cccc(N(CC(=O)Nc2ccc(Br)cc2)S(C)(=O)=O)c1C` as the compound, how does the AC50 [1] read?
Answer: 0.0178 µM [falling, full curve, poor fit]

Question: For `O=C(Nc1ccc(OC(F)F)cc1)Nc1cccc(C(F)(F)F)c1`, which AC50 [2] is on record?
Answer: 11.2 µM [rising, single point]

Question: Which AC50 [2] does the source give for `O=C(Nc1nc2ccccc2s1)c1ccc2c(c1)OCO2` here?
Answer: 0.398 µM [rising, partial curve, poor fit]

Question: For `O=C(Nc1ccc(CN2CCOCC2)cc1)c1ccc(-c2cc(Cl)ccc2Cl)o1`, which AC50 [2] is on record?
Answer: 14.1 µM [rising, partial curve]

Question: For `COc1ccc(OC)c(NC(=O)c2c(NCc3ccc(C)o3)sc3c2CCC(C)C3)c1` (centres undefined), which AC50 [1] is on record?
Answer: 7.08 µM [falling, partial curve]

Question: With `COc1ccc(C(=O)NCc2ccc3c(c2)CCN3C(=O)c2ccncc2)cc1` as the compound, how does the AC50 [1] read?
Answer: 1.12 µM [falling, partial curve]

Question: What about the AC50 [2] of the same compound?
Answer: 2.82 µM [falling, partial curve, poor fit]

Question: With `OCCCc1nc2n(n1)C(c1cccs1)C=C(c1ccc(Br)cc1)N2` (centres undefined) as the compound, how does the AC50 [1] read?
Answer: 35.5 µM [falling, single point]

Question: And the AC50 [2]?
Answer: 35.5 µM [falling, single point]

Question: For `CCN1/C(=C/c2ccc3cccc(C)c3[n+]2CC)Sc2ccccc21`, which AC50 [2] is on record?
Answer: 10 µM [falling, partial curve]

Question: Which AC50 [1] does the source give for `Fc1ccc(-c2nnc(NC3=NCCCCC3)o2)cc1` here?
Answer: 14.1 µM [rising, partial curve, poor fit]

Question: Which AC50 [1] does the source give for `Cc1ccc(CN2CCCn3nc(C(=O)NCCc4ccc(Cl)cc4)cc3C2=O)cc1` here?
Answer: 35.5 µM [falling, partial curve, poor fit]

Question: For `Cc1ccc(Oc2nc3ccccn3c(=O)c2/C=C(\C#N)C(=O)Nc2c(C)n(C)n(-c3ccccc3)c2=O)cc1`, which AC50 [2] is on record?
Answer: 10 µM [rising, partial curve, poor fit]

Question: Which AC50 [2] does the source give for `CCCCOC(=O)n1c(=O)oc2cc(S(=O)(=O)N3CCCCC3)ccc21` here?
Answer: 28.2 µM [rising, single point]

Question: Which results are given for `S=c1[nH]nc(-c2ccccc2)n1/N=C/c1ccc(-c2ccccc2Cl)o1`?
Answer: AC50 [1]: 12.6 µM [rising, partial curve, poor fit]; AC50 [2]: 5.01 µM [rising, full curve]

Question: Which AC50 [2] does the source give for `COc1ccccc1C(=O)NCC1CCN(c2ccc(S(=O)(=O)N3CCOCC3)cc2)CC1` here?
Answer: 31.6 µM [rising, single point]

Question: For `O=C(NCC(c1cccnc1)N1CCN(Cc2ccccc2)CC1)C(=O)Nc1ccc(Cl)cc1` (centres undefined), which AC50 [1] is on record?
Answer: 8.91 µM [falling, full curve, poor fit]

Question: With `CC(C)c1cc(C(=O)Nc2cc(Cl)ccc2O)no1` as the compound, how does the AC50 [2] read?
Answer: 10 µM [rising, partial curve]

Question: Which results are given for `CCC(C)NC(=O)c1ccc(-n2c(-c3ccccc3)cc3c2CCCC3)cc1` (centres undefined)?
Answer: AC50 [1]: 25.1 µM [falling, single point]; AC50 [2]: 0.00631 µM [falling, full curve, poor fit]

Question: With `Cc1ccc(CCNC(=O)C2CCCN(C(=O)c3cc4sccc4n3C)C2)cc1` (centres undefined) as the compound, how does the AC50 [1] read?
Answer: 14.1 µM [rising, partial curve]

Question: And the AC50 [2]?
Answer: 12.6 µM [rising, partial curve]

Question: Which AC50 [2] does the source give for `COc1ccc2c(c1)CCc1c(C(=O)NCCc3ccc(OC)c(OC)c3)noc1-2` here?
Answer: 0.112 µM [rising, partial curve]

Question: Which AC50 [1] does the source give for `Nn1c(SCC(=O)N2CCOCC2)nnc1C1CC1` here?
Answer: 25.1 µM [rising, single point]

Question: For `CCCCn1cc(C(=O)c2cc(Br)ccc2O)cc(C#N)c1=O`, which AC50 [2] is on record?
Answer: 25.1 µM [falling, single point]

Question: With `CCOc1ccc(NC(=S)NC(=O)c2c(Cl)cnn2CC)c([N+](=O)[O-])c1` as the compound, how does the AC50 [1] read?
Answer: 11.2 µM [rising, single point]

Question: What about the AC50 [2] of the same compound?
Answer: 10 µM [rising, single point]

Question: With `CN(NC(=S)Nc1ccc(OC(F)F)cc1)C(=S)Nc1ccc(OC(F)F)cc1` as the compound, how does the AC50 [2] read?
Answer: 0.112 µM [rising, full curve, poor fit]

Question: With `CCN(CC)c1ccc(NC(=O)c2ccccc2Br)cc1S(=O)(=O)Nc1ccccc1OC` as the compound, how does the AC50 [1] read?
Answer: 2.82 µM [rising, single point]

Question: What about the AC50 [2] of the same compound?
Answer: 3.55 µM [rising, single point]

Question: Which AC50 [1] does the source give for `O=C(C1CCCN(Cc2nc(-c3ccc(Cl)cc3)no2)C1)N1CCOCC1` (centres undefined) here?
Answer: 2.51 µM [falling, partial curve, poor fit]

Question: What about the AC50 [2] of the same compound?
Answer: 6.31 µM [falling, single point]

Question: Which AC50 [1] does the source give for `COc1ccc2occ(NC(C)=O)c2c1` here?
Answer: 14.1 µM [rising, single point]

Question: And the AC50 [2]?
Answer: 20 µM [rising, single point]

Question: What does the source list for `COc1ccc(Nc2nc(Cl)nc(NCc3ccco3)n2)c(OC)c1`?
Answer: AC50 [1]: 0.398 µM [rising, single point]; AC50 [2]: 15.8 µM [rising, partial curve]

Question: With `S=C(NC1CCCCC1)N(CCc1nc2ccccc2[nH]1)C1CCCC1` as the compound, how does the AC50 [1] read?
Answer: 12.6 µM [rising, single point]

Question: And the AC50 [2]?
Answer: 20 µM [rising, single point]

Question: For `Cc1cccc(C(=O)NCCc2sc(-c3ccccc3)nc2C)c1`, which AC50 [2] is on record?
Answer: 1.41 µM [falling, partial curve]

Question: For `CCOC(=O)c1sc2ccccc2c1S(=O)(=O)Nc1cccc(C(F)(F)F)c1`, which AC50 [2] is on record?
Answer: 12.6 µM [rising, single point]

Question: Which AC50 [2] does the source give for `O=C(Nc1c(-c2ccccc2)nc2ccc(Cl)cn12)c1cccs1` here?
Answer: 11.2 µM [rising, partial curve]

Question: Which AC50 [2] does the source give for `C(=Nc1ccc(Nc2ccccc2)cc1)c1ccc2ccccc2c1` here?
Answer: 15.8 µM [rising, partial curve]

Question: Which AC50 [2] does the source give for `Cc1ccsc1C(=O)OCC(=O)Nc1ccc(Cl)cc1C(F)(F)F` here?
Answer: 22.4 µM [rising, single point]

Question: For `Cc1c(Cl)cccc1NC(CC(=O)c1ccccc1)C(=O)O` (centres undefined), which AC50 [2] is on record?
Answer: 20 µM [rising, single point]

Question: Which AC50 [1] does the source give for `Cc1sc2ncnc(N3CCC(C(=O)Oc4cccc(Cl)c4Cl)CC3)c2c1C` here?
Answer: 5.01 µM [falling, full curve, poor fit]

Question: Which AC50 [1] does the source give for `COc1ccc(CNC(=O)C(C#N)c2nc3ccccc3nc2N2CCCC2)cc1` (centres undefined) here?
Answer: 31.6 µM [falling, single point]

Question: Which AC50 [1] does the source give for `COc1cccc2c1C(=O)c1c(O)c3c(c(O)c1C2=O)C[C@@](O)(C(=O)CO)C[C@@H]3OC1CC(N)C(O)C(C)O1` (some centres undefined) here?
Answer: 10 µM [falling, partial curve]

Question: For `COc1ccccc1OCC(=O)Nc1cccc(-c2nnc(-c3ccco3)o2)c1`, which AC50 [1] is on record?
Answer: 39.8 µM [falling, partial curve, poor fit]

Question: Which results are given for `O=C(NCC(c1cccnc1)N1CCN(Cc2ccccc2)CC1)C(=O)Nc1cccc(F)c1` (centres undefined)?
Answer: AC50 [1]: 1.26 µM [falling, full curve, poor fit]; AC50 [2]: 1.41 µM [falling, full curve, poor fit]

Question: With `Cc1ccc(Cn2c(=O)n(CC3CCC(C(=O)N4CCOCC4)CC3)c(=O)c3sccc32)cc1` (centres undefined) as the compound, how does the AC50 [2] read?
Answer: 0.00891 µM [falling, full curve, poor fit]

Question: With `COC(=O)C(Cc1ccccc1)N1CCS(=O)(=O)CC1` (centres undefined) as the compound, how does the AC50 [1] read?
Answer: 1 µM [falling, full curve, poor fit]

Question: For `O=C(CSc1nnc(NC2CCCCC2)s1)Nc1ccc2c(c1)C(=O)c1ccccc1C2=O`, which AC50 [1] is on record?
Answer: 3.16 µM [falling, partial curve, poor fit]

Question: And the AC50 [2]?
Answer: 0.00282 µM [falling, full curve, poor fit]

Question: Which AC50 [1] does the source give for `O=C(OCC1OC(n2cnc3c(N(C(=O)c4ccccc4)C(=O)c4ccccc4)ncnc32)C(O)C1F)c1ccccc1` (centres undefined) here?
Answer: 35.5 µM [falling, single point]

Question: What about the AC50 [2] of the same compound?
Answer: 35.5 µM [falling, single point]

Question: With `COC(=O)[C@@H]1CC[C@H](C)[C@@H](c2ccc(C)cc2)N1C(=O)c1ccc(/C=N/OC[C@@H](O)COCc2ccco2)cc1` as the compound, how does the AC50 [2] read?
Answer: 15.8 µM [rising, single point]

Question: Which AC50 [1] does the source give for `COc1cccc(OCCN2CCN(c3ncnc4c3cnn4-c3ccccc3)CC2)c1` here?
Answer: 12.6 µM [rising, partial curve]

Question: And the AC50 [2]?
Answer: 12.6 µM [rising, partial curve]

Question: Which results are given for `CCc1cccc(NC(=O)CN2CCCN(Cc3cccc(C)c3)S2(=O)=O)c1`?
Answer: AC50 [1]: 35.5 µM [falling, single point]; AC50 [2]: 35.5 µM [falling, single point]
